Article PMC10213050
No constants are given. Whether binding was seen depends on the method and setting. Binding seen in cells or lysates may run through a third protein. A yes stands for co-enrichment or nearness to the bait. Other partners may have been found. Where a sequence is shown, tags or fusion partners need not be part of it.

By UniProt entry, the sequences of proteins in these tests, tags left out.
UniProt P25454: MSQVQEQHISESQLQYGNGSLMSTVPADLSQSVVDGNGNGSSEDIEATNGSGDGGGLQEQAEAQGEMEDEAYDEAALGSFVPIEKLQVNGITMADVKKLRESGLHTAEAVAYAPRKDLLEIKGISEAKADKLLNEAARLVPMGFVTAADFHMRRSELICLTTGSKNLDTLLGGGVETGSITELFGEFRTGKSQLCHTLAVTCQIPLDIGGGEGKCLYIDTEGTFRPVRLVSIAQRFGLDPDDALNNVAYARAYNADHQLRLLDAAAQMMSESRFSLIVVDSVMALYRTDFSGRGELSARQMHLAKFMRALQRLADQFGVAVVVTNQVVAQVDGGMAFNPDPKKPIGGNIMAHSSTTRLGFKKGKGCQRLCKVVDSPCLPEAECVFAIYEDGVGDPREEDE

Molecular target: T1, GST-Bre1 (yeast (Saccharomyces cerevisiae)) (UniProt Q07457)
T1 sequence: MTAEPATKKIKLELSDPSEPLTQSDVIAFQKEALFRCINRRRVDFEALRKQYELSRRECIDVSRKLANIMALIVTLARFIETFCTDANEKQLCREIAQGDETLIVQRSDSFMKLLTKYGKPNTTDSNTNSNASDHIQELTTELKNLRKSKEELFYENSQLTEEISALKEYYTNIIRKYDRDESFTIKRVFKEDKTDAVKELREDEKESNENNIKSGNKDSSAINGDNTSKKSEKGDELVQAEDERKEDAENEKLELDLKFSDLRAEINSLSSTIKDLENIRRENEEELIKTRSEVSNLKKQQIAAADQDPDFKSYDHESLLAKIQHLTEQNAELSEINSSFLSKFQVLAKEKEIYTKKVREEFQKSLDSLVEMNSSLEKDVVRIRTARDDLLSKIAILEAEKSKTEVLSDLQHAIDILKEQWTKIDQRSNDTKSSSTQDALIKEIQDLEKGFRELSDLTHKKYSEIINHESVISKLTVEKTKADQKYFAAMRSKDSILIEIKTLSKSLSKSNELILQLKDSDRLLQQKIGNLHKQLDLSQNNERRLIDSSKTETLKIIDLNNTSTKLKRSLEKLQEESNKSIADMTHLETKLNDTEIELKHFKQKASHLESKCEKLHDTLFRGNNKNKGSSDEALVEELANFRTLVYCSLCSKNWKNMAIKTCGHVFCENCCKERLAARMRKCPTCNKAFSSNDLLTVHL
Test: affinity purification with mass spectrometry; purified recombinant GST-Bre1 on glutathione agarose beads incubated with lysate of yeast cells treated with 0.1% MMS, 4 °C overnight; washes with lysis buffer containing 200 mM NaCl; purified GST as control; only the target purified

binding: binds
Substance: Rad51 (in lysate of MMS-treated yeast cells) (from UniProt P25454 1-400)
